# Laboratory results reported in US20200131238A1, “METHOD FOR PROMOTING ADIPOCYTE DIFFERENTIATION AND OBESITY-RELATED DISEASE TREATMENT” (AMERICAN UNIVERSITY, priority 2018, published 2020).
# For at least one compound, name, drawing or mass did not settle the structure.
# Assays:
# Format in all cases: cell-based, human
# AF2 cells = test: adipose differentiation assay with AF2 clonal cells; conditions: AF2 stem cells, DAC 0.125 and 1 μM vs DMSO control
# Description: Because patient-derived cells, such as ASCs, are highly heterogeneous, it is vital to ensure that the differences in cell behavior are truly fate decisions and not a measure of non-stem cell contamination (perhaps immune cells, fibroblasts, or other cells). We therefore have performed our experiments with clonally-derived cells expanded in the inventor's laboratory. Many of our experiments use a single clonal line isolated from ASC080414A (Zen-Bio, Inc.), called the AF2 line. Clonal isolation has the advantage of minimizing both genetic and epigenetic variance, which enabled us to identify a highly significant signal in our data (FIG. 6E).
# First, by evaluating gene expression in stem cells immediately after DAC treatments (rather than differentiated cells), we minimized secondary gene expression changes caused by the differentiation process itself. Second, hypothesizing that the expression of driver genes will more strongly correlate with differentiation efficiency than passenger genes, we obtained the Pearson's correlation between candidate gene expression in stem cells and the relative formation of adipocytes after 14-18 days of adipogenic induction. Third, we used a clonal cell line (AF2) in order to minimize epigenetic variability between cells. […]
# NRG1 = NRG1 isoform expression in stem cells after DAC treatment (RT-qPCR); conditions: clonal and raw processed lipoaspirate cells
# Description: A. Microarray data showing that NRG1 is preferentially expressed in clonal cell line AF2, both stem cells and adipocytes. UCP1 is a brown adipose tissue (BAT) marker and UCP2 is a white adipose tissue (WAT) marker. Adiponectin (ADIPOQ) shown as a differentiation control. P-values calculated relative to NRG4 using 1-way ANOVA. Analysis of gene expression in mouse adipose precursor cell lines isolated from inguinal (B) or perigonadal (C) depots of a male mouse. […] NRG, Neuregulin; UCP, uncoupling protein; AdipoQ, adiponectin. Isoform-specific epigenetic induction of NRG1 expression in primary human cells, clonal (D) and raw processed lipoaspirate (E). Expression of NRG1 is induced with demethylating agent decitabine (DAC). Types I-III represent distinct transcriptional start sites within the NRG1 locus and produce different mRNA isoforms (see FIG. 7D for map). The Type III isoform is specifically DAC responsive. P-values derived from Tukey's HSD post-hoc test after ANOVA and are relative to corresponding matched DMSO control. Note Type II isoform expression was not detected in the stem cells.
# First, by evaluating gene expression in stem cells immediately after DAC treatments (rather than differentiated cells), we minimized secondary gene expression changes caused by the differentiation process itself. […]
# Type III CpG island = test: bisulfite-PCR of NRG1 Type III CpG island; conditions: 1 μM DAC
structure (smiles),measurement,setting,value
"Nc1ncn([C@H]2C[C@H](O)[C@@H](CO)O2)c(=O)n1 [DAC, 5-aza-2′-deoxycitidine]",differentiation into adipocytes (lipid-positive cells) after DAC treatment,AF2 cells,increased differentiation
same,expression of NRG1 in primary human cells,NRG1,induced
same,demethylation of Type III CpG island,Type III CpG island,does not demethylate
